The values that follow come from patent publication US20080108655A1, “Drug composition and method for treating malaria and malignancy” (priority 2005, published 2008).

Data set [1] deals with P. falciparum Dd2 (multidrug resistant). On the procedure:
(§1) All in vitro studies were 72 hour growth inhibition assays, starting with 0.2% parasitemia, 2% hematocrit under standard culture conditions in 96 well microplates. Growth was quantified using the fluorescence-based assay developed in our lab (Smilkstein et al; Antimicrobial Agents and Chemotherapy 2004;48:1803-1806). EC50 determined by non-linear regression curve fitting (sigmoidal dose-response, variable slope equation) using GraphPad Prism software. Isobolograms and EC50,75 and 90 estimates computed using CalcuSyn software (Biosoft, T. C. Chou).
(§2) 2. […] In the following figures, fixed-ratio combinations of 2 drugs are made at the concentrations of each described in the figure legend (Fivelman, Adagu and Warhurst. Antimicrobial Agents and Chemotherapy 2004;48:4097-4102). Then, in quadruplicate, each of these combinations is diluted serially 2-fold, yielding one curve for each starting mixture. The data are expressed using the concentration of the antimalarial of interest on the X axis. […] In each starting combination, an increase of one drug is accompanied by a corresponding decrease in the other. As a result, overlapping curves indicate an additive relationship; a shift to the left, synergy; and a shift to the right, antagonism. • b. […]

The test system of data set [2] is P. falciparum W2 (chloroquine-resistant). The data set can be described thus: 72 hour growth inhibition assay, fluorescence-based, strain W2. In kind it is cell-based. The following applies: W2, in vitro. On the procedure:
as §1, §2

The next data set relates to CQ-resistant P. chabaudi. The conditions noted are these: mice, single pilot trial.
For data set [3] the following is noted: human, in vivo; cited from earlier work.

Consider `Cc1ccccc1C(OCCN(C)C)c1ccccc1` (racemic) [orphenadrine], for which the “potency in chemosensitizing to chloroquine, compared with chlorpheniramine” value in data set [1] (Dd2, in vitro) was “approximately twice as potent as chlorpheniramine”. The “intrinsic antimalarial activity of the drug alone” value in data set [1] (Dd2 compared with D6) was “far greater in multidrug resistant (e.g., Dd2) than in non-resistant (e.g., D6) parasites”. Besides, the “potency in chemosensitizing to chloroquine, compared with chlorpheniramine” value in data set [2] is “approximately twice as potent as chlorpheniramine”. For the same molecule, in the data set on CQ-resistant P. chabaudi, the “activity in vivo against CQ-resistant P. chabaudi” value is listed as “active in vivo”. For the same molecule, in data set [3], the “typical serum concentration values” was less than 1 µM and the “typical serum concentrations in clinical use” value is recorded as 500 nM-2 μM.
